This is one part of the list. Single values are uncertain here, since repeats match poorly.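 HEK293T cells were given each compound shortly before transfection with a reporter in which red mCherry is followed by the SARS-CoV-2 frameshift element and then GFP in the −1 frame, so GFP appears only after frameshifting.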

The test system of this assay is HEK293T. The assay is described as follows: percent viability (nuclei count) relative to control; higher = more viable cells. Conditions: 10 µM; 24 h.
Regarding `Nc1ccc2cc3ccc(N)cc3nc2c1` [proflavine], the percent viability was determined as 133%.

Turning to `COc1ccc2cc1Oc1cc3c(cc1OC)CC[N+](C)(C)[C@H]3Cc1ccc(cc1)Oc1c(OC)c(OC)cc3c1[C@@H](C2)[N+](C)(C)CC3` [Metubine], the percent viability came out at 171%.

For the compound `O=C(O)[C@@H]1CCCN1` [proline], the percent viability was determined as 111%.

As to `CO[C@@H]1[C@@H](OC(N)=O)[C@@H](O)[C@H](Oc2ccc3c(O)c(NC(=O)c4ccc(O)c(CC=C(C)C)c4)c(=O)oc3c2C)OC1(C)C` [Novobiocin·Na], the percent viability worked out at 205%.

For `CCCc1ncc(C[n+]2ccccc2C)c(N)n1`, the percent viability was 362%.

Values taken from the supplement of paper PMC8256030.
